How the values were obtained:
[1] = cited from earlier work
[2] = Solid-state fluorescence spectra and quantum yield; format: physicochemical; conditions: for ΦF (fluorescence quantum yield) / λem^max: solid state, excited at 365 nm; for luminescence compared with the pure API: this work
[3] = cited from earlier work; remark: listed apart in the source

Row | SMILES | tabletability vs parent API (fold) [1] [x] | ΦF (fluorescence quantum yield) [2] | Biopharmaceutics Classification System class [3] | λem^max [2] [nm] | luminescence compared with the pure API [2]
1 | CN1C(C(=O)Nc2ccccn2)=C(O)c2sc(Cl)cc2S1(=O)=O.CNC(=O)NC [LRM 1,3-dimethyl urea] | 2.5 | – | – | – | –
2 | Cc1cnc(NC(=O)C2=C(O)c3ccccc3S(=O)(=O)N2C)s1 [MEL, meloxicam] | – | 0.14 | – | – | –
3 | Cc1cnc(NC(=O)C2=C(O)c3ccccc3S(=O)(=O)N2C)s1.Nc1ccncc1 [MEL-4AP] | – | 0.008 | – | – | –
4 | CN(C)c1ccncc1.Cc1cnc(NC(=O)C2=C(O)c3ccccc3S(=O)(=O)N2C)s1 [MEL-4DMP] | – | 0.044 | – | – | –
5 | C1CNCCN1.Cc1cnc(NC(=O)C2=C(O)c3ccccc3S(=O)(=O)N2C)s1.Cc1cnc(NC(=O)C2=C(O)c3ccccc3S(=O)(=O)N2C)s1 [MEL-PPZ] | – | 0.016 | – | – | –
6 | CN1C(C(=O)Nc2ccccn2)=C(O)c2ccccc2S1(=O)=O [PRM, Piroxicam] | – | 0.614 | Class II | 460 | –
7 | CN1C(C(=O)Nc2ccccn2)=C(O)c2ccccc2S1(=O)=O.Nc1ccncc1 [PRM-4AP] | – | 0.685 | – | 477 | modified luminescence
8 | CN(C)c1ccncc1.CN1C(C(=O)Nc2ccccn2)=C(O)c2ccccc2S1(=O)=O [PRM-4DMP] | – | 0.660 | – | 471 | modified luminescence
9 | C1CNCCN1.CN1C(C(=O)Nc2ccccn2)=C(O)c2ccccc2S1(=O)=O.CN1C(C(=O)Nc2ccccn2)=C(O)c2ccccc2S1(=O)=O [PRM-PPZ] | – | 0.408 | – | 463 | modified luminescence
